Results taken from the supplement of paper PMC10849652.
This is one part of the list.

By UniProt entry, the sequences of proteins in these tests, tags left out. Where a name states a change or a piece, a line headed by the entry shows the natural chain unless it says otherwise.
UniProt Q9H497: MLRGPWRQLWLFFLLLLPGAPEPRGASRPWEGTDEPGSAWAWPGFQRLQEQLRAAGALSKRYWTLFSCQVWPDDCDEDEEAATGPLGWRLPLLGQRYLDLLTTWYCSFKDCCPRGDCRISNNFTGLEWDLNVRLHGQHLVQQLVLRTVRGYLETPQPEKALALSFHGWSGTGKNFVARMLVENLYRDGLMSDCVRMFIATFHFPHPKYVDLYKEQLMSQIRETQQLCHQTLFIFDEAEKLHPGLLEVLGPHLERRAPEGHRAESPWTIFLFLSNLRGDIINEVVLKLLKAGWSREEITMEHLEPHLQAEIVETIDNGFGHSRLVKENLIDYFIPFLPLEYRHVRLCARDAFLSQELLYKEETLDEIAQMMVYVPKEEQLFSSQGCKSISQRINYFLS
UniProt Q6ZVM7: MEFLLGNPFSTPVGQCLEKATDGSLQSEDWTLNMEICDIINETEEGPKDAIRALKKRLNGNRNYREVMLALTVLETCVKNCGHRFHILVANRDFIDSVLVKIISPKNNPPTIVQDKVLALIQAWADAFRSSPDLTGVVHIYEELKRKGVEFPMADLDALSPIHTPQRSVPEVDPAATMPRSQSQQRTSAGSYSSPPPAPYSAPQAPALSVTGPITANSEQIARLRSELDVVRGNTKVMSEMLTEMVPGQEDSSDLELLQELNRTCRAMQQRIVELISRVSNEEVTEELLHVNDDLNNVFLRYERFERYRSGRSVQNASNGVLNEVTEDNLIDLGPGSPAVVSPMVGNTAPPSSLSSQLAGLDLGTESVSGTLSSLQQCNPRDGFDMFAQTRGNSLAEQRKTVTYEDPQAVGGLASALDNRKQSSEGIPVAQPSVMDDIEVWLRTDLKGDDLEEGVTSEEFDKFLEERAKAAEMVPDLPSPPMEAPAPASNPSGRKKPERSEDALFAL
UniProt Q96S44: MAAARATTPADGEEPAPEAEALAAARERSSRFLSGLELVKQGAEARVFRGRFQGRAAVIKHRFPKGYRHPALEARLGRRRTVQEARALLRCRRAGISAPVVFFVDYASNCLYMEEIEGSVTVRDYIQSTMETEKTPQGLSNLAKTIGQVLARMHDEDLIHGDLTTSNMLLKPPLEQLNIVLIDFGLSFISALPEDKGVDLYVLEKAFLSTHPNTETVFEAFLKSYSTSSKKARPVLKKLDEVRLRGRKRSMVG
UniProt Q5JTV8: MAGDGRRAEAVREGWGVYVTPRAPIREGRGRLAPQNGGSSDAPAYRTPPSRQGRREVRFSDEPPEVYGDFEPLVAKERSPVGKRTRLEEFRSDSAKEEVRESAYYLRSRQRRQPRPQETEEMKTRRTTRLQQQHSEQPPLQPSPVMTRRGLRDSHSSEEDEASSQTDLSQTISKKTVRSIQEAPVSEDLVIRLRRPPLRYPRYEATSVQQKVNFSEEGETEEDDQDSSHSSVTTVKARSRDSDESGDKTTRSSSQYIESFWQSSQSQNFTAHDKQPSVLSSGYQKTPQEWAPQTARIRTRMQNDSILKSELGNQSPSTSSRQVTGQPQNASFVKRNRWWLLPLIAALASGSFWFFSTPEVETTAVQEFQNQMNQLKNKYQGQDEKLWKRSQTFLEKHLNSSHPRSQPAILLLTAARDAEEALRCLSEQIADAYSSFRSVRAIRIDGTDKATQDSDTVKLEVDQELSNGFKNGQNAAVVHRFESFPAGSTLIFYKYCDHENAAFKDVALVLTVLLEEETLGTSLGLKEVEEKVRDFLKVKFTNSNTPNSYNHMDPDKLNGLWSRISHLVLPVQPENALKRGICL
UniProt P02585, whole entry, looked up: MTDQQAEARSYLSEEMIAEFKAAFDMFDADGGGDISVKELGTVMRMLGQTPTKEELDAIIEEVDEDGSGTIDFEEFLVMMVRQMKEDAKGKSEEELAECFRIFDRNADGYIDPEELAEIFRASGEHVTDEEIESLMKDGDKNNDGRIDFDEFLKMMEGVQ
UniProt Q96HH6: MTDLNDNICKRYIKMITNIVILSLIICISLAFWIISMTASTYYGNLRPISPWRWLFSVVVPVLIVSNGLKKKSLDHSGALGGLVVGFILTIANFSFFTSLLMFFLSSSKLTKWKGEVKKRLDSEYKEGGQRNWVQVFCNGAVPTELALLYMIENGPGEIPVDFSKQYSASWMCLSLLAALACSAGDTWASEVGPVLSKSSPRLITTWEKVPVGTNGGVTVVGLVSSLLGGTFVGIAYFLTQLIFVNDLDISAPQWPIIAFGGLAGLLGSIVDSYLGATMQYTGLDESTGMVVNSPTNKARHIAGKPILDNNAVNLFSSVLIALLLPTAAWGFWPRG
UniProt Q6ZT21: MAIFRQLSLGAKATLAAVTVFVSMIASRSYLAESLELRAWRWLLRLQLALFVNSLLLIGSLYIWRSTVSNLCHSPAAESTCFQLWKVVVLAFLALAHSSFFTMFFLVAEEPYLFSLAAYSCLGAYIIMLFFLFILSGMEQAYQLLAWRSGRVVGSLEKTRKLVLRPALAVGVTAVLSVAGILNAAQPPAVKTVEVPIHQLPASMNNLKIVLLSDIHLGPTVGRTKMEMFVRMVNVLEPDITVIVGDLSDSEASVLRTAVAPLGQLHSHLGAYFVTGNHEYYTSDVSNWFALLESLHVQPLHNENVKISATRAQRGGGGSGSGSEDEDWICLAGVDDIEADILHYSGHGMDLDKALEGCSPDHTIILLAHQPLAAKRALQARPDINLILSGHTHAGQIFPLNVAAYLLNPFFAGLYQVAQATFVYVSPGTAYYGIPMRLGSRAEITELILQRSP
UniProt Q8IY95: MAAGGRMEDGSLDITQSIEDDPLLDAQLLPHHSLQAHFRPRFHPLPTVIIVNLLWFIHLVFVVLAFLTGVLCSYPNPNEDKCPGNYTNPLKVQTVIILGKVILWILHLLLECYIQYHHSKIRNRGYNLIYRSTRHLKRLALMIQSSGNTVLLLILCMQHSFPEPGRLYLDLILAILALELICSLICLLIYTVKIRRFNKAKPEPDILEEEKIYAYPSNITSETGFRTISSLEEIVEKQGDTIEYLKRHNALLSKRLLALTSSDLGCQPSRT
UniProt P57088: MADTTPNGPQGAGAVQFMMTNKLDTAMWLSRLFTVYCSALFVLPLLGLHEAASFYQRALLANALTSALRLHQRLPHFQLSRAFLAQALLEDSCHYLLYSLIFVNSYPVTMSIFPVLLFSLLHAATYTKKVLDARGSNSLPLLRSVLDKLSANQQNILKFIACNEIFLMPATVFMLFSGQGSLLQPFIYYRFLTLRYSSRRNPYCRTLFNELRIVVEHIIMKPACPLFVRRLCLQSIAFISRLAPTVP
UniProt Q8N9V7: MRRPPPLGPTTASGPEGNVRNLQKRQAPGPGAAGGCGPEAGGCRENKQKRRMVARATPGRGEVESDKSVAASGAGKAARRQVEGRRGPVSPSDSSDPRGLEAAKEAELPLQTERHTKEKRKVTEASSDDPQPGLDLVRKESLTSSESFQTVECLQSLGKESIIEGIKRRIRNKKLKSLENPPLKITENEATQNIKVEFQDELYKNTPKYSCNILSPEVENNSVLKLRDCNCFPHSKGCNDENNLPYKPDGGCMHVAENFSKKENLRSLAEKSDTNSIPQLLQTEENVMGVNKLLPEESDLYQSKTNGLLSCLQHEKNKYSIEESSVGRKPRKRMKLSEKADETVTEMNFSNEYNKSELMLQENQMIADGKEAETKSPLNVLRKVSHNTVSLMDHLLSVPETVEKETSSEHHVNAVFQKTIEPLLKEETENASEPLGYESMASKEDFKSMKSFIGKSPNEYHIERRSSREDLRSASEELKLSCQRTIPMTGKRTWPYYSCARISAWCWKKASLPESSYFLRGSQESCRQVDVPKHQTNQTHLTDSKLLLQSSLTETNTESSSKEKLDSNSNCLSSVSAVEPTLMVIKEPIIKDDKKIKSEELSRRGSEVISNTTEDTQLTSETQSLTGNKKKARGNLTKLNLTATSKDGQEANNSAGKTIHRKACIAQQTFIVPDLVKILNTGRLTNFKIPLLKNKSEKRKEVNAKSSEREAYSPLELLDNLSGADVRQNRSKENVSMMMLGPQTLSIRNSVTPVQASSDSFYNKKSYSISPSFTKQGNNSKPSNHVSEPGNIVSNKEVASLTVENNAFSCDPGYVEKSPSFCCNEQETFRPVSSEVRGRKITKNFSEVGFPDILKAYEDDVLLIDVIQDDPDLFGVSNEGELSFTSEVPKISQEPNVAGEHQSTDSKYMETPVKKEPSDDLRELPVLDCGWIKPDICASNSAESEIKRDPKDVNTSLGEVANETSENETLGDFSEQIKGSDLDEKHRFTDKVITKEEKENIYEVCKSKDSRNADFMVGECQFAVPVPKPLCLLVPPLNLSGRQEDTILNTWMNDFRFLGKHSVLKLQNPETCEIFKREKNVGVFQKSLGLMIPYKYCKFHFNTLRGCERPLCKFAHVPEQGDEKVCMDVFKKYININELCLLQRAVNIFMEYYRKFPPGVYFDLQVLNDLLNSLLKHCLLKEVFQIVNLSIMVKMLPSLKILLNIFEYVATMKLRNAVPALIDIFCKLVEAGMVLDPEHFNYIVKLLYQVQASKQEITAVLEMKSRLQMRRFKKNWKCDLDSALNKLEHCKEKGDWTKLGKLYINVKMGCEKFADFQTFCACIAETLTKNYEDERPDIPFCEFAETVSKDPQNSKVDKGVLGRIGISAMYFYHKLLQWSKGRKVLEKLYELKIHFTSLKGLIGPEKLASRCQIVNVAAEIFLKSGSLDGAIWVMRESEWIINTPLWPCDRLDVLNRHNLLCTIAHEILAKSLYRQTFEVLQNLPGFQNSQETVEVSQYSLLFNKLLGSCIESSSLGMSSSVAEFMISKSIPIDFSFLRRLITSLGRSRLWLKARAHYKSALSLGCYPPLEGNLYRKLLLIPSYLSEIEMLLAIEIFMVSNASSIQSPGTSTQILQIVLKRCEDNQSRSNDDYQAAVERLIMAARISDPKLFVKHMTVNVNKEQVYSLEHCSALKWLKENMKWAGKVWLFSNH
UniProt Q9UKE5: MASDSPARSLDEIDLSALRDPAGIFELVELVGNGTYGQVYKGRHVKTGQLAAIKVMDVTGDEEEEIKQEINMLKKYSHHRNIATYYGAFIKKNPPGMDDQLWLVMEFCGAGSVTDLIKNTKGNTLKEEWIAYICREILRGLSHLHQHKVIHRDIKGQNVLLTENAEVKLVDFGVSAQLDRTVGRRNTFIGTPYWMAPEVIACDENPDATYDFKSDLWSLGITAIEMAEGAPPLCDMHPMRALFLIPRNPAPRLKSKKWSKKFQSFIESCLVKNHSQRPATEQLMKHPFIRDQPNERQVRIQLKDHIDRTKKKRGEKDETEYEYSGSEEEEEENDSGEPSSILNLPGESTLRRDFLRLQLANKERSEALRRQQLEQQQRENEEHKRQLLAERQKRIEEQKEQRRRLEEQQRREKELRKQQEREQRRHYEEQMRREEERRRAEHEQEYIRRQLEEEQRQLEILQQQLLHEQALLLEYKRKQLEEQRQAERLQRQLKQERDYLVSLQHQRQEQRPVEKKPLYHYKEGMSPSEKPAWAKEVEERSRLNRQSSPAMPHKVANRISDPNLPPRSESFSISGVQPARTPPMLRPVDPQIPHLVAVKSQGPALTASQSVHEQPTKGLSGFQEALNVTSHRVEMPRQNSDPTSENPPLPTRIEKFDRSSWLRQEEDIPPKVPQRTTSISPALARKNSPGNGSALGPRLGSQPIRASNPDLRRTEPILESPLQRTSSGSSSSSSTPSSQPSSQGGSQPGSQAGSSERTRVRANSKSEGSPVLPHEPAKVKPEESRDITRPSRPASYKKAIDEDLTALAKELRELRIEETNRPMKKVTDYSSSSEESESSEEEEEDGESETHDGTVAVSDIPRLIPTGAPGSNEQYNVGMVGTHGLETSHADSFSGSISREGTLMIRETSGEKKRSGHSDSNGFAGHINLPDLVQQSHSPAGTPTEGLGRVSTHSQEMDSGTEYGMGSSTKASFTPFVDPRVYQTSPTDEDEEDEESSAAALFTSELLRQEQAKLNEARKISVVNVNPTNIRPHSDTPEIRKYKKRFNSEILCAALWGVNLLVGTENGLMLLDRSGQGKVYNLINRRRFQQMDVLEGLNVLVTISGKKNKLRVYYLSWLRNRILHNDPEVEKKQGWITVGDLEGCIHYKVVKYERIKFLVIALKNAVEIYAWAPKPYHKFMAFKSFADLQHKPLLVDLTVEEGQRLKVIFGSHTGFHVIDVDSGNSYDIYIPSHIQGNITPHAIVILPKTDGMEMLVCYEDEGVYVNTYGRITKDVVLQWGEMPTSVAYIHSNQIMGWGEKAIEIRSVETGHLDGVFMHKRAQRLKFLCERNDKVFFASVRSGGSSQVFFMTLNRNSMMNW
UniProt P13693: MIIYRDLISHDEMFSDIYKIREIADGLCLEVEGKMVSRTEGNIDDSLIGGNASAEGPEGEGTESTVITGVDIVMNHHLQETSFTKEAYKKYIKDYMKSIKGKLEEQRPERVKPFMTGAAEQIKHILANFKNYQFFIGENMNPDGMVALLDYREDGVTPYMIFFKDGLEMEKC

Key:
Assay in all cases: log2 fold change, soluble protein after heating vs DMSO (PISA); higher = thermal stabilisation; K562 lysate, 10 uM; active = over 0.2 and 3.5 SD of the protein, either way, in both replicates (recomputed)
[1] = compound: CCCS(=O)(=O)Nc1ccc(F)c(C(=O)c2c[nH]c3ncc(-c4ccc(Cl)cc4)cc23)c1F [vemurafenib]
Outline: (§1)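 Following dounce homogenisation of K562 pellets in PBS pH 7.4 with 1 mM MgCl2, crude extract at 1 mg/mL protein was incubated for 30 min with 10 μM compound. Aliquots were then heated for 3 min over 48°C-58°C and pooled, NP-40 was added to 0.5% at 4°C, and soluble protein was recovered as the supernatant at 21,000xg for 90 min. Channel-sum-equalised TMTpro 16plex LC-MS/MS quantified this protein. Each value, from duplicates, is a log-two fold change in thermal stability relative to solvent controls.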

[2] = compound: CCCS(=O)(=O)Nc1ccc(F)c(C(=O)c2c[nH]c3ncc(Cl)cc23)c1F
Outline: as §1

[3] = compound: CCN(CCCOc1ccc2c(Nc3cc(CC(=O)Nc4cccc(F)c4)[nH]n3)ncnc2c1)CCOP(=O)(O)O [barasertib]
Outline: as §1

[4] = compound: CC[C@@H]1C(=O)N(C)c2cnc(Nc3ccc(C(=O)NC4CCN(C)CC4)cc3OC)nc2N1C1CCCC1
Outline: as §1

[5] = compound: CC[C@@H]1C(=O)N(C)c2cnc(Nc3ccc(C(=O)N[C@H]4CC[C@H](N5CCN(CC6CC6)CC5)CC4)cc3OC)nc2N1C(C)C [volasertib]
Outline: as §1

[6] = compound: CCn1c(C(=O)N(C2CC2)C2CC2)cc2c3c(ncn3C)c(Nc3cc(C)n(C)n3)nc21
Outline: as §1

[7] = compound: CCn1cc(-c2ccnc3[nH]c(-c4cccc(CN(C)C)c4)cc23)c(-c2ccc(NC(=O)N(C)C)cc2)n1
Outline: as §1

[8] = compound: CN1CCC(CNc2ccc3ncc(-c4cccc(OC(F)(F)F)c4)n3n2)CC1
Outline: as §1

[9] = compound: CN1CCN(CCOc2cc(OC3CCOCC3)c3c(Nc4c(Cl)ccc5c4OCO5)ncnc3c2)CC1 [saracatinib]
Outline: as §1

[10] = compound: CN1CCN(c2nc(C3=C(c4c[nH]c5ccccc45)C(=O)NC3=O)c3ccccc3n2)CC1 [sotrastaurin]
Outline: as §1

[11] = compound: CN1CC[C@H](c2c(O)cc(O)c3c(=O)cc(-c4ccccc4Cl)oc23)[C@H](O)C1 [alvocidib]
Outline: as §1

[12] = compound: CN1CCc2c(c3ccccc3n2Cc2ccc(C(=O)NO)cc2)C1 [Tubastatin A]
Outline: as §1

[13] = compound: CNC(=O)C1=CC=CC=C1NC2=NC(=NC=C2Cl)NC3=C(C=C(C=C3)N4CCOCC4)OC
Outline: as §1

[14] = compound: CNC(=O)c1ccc(Nc2ncc(C(F)(F)F)c(NCc3nccnc3N(C)S(C)(=O)=O)n2)cc1 [defactinib]
Outline: as §1

[15] = compound: CNc1nc(-c2ccc3c(N)n[nH]c3c2)cc(N2C[C@@H](C(=O)NC3CCCCC3)CC[C@H]2C)n1
Outline: as §1

[16] = compound: COC(=O)N[C@@H](C)CNc1nccc(-c2cn(C(C)C)nc2-c2cc(Cl)cc(NS(C)(=O)=O)c2F)n1 [encorafenib]
Outline: as §1

[17] = compound: COC(=O)[C@H](CCSC)NC(=O)C1=C(C=C(C=C1)NC[C@H](CS)N)C2=CC=CC=C2
Outline: as §1

[18] = compound: COc1cc(Nc2ncc3c(n2)-c2ccc(Cl)cc2C(c2c(F)cccc2OC)=NC3)ccc1C(=O)O [alisertib]
Outline: as §1

[19] = compound: COc1cc2nc(-c3cc(F)ccc3O)nc(N[C@@H]3CNC[C@H]3C(C)(C)O)c2cc1OC
Outline: as §1

[20] = compound: COc1cc2ncnc(Nc3ccc(F)c(Cl)c3)c2cc1OCCCN1CCOCC1 [gefitinib]
Outline: as §1

Measured: log2 fold change

TOR3A (UniProt Q9H497)
inactive: [1] -0.001 | [2] -0.11 | [3] -0.031 | [4] -0.013 | [5] -0.05 | [6] -0.006 | [7] -0.123 | [8] 0.057 | [9] 0.014 | [10] 0.03 | [11] 0.01 | [12] -0.016 | [13] 0.004 | [14] 0.01 | [15] 0.019 | [16] 0.006 | [17] -0.006 | [18] 0.032 | [19] -0.367 | [20] 0.018

TOM1L2 (UniProt Q6ZVM7)
inactive: [1] 0.002 | [2] 0.053 | [3] 0.088 | [4] 0.089 | [5] -0.134 | [6] -0.032 | [7] -0.096 | [8] 0.024 | [9] -0.009 | [10] 0.003 | [11] -0.104 | [12] -0.01 | [13] 0.072 | [14] 0 | [15] -0.006 | [16] 0.05 | [17] -0.019 | [18] 0.016 | [19] 0 | [20] 0.037

TP53RK (UniProt Q96S44)
inactive: [1] -0.018 | [2] 0.047 | [3] 0 | [4] -0.058 | [5] -0.002 | [6] 0.013 | [7] 0.025 | [8] -0.039 | [9] -0.049 | [10] -0.023 | [11] -0.012 | [12] 0.054 | [13] -0.037 | [14] 0.019 | [15] -0.026 | [16] 0.028 | [17] 0.025 | [18] 0.001 | [19] 0.002 | [20] -0.042

TOR1AIP1 (UniProt Q5JTV8)
inactive: [1] 0.06 | [2] -0.096 | [3] -0.007 | [5] 0.053 | [9] 0.128 | [13] -0.056 | [14] -0.004 | [15] 0.014 | [18] -0.194 | [19] 0.011 | [20] -0.041

TNNC2 (UniProt P02585)
inactive: [1] -0.035 | [2] -0.006 | [4] -0.001 | [5] 0.087 | [6] 0.007 | [7] -0.17 | [8] 0.019 | [9] 0.027 | [10] 0.042 | [11] -0.037 | [12] 0.01 | [13] 0.003 | [14] 0.068 | [15] 0.007 | [16] 0.021 | [17] -0.083 | [18] 0.044 | [19] -0.03 | [20] -0.084

Random excerpt: 2 records from the list, in no set order.
TP53RK (UniProt Q96S44)
inactive: [1] -0.018 | [2] 0.047 | [3] 0 | [4] -0.058 | [5] -0.002 | [6] 0.013 | [7] 0.025 | [8] -0.039 | [9] -0.049 | [10] -0.023 | [11] -0.012 | [12] 0.054 | [13] -0.037 | [14] 0.019 | [15] -0.026 | [16] 0.028 | [17] 0.025 | [18] 0.001 | [19] 0.002 | [20] -0.042

TOR3A (UniProt Q9H497)
inactive: [1] -0.001 | [2] -0.11 | [3] -0.031 | [4] -0.013 | [5] -0.05 | [6] -0.006 | [7] -0.123 | [8] 0.057 | [9] 0.014 | [10] 0.03 | [11] 0.01 | [12] -0.016 | [13] 0.004 | [14] 0.01 | [15] 0.019 | [16] 0.006 | [17] -0.006 | [18] 0.032 | [19] -0.367 | [20] 0.018

(next part)

TMEM19 (UniProt Q96HH6)
inactive: [1] -0.098 | [2] -0.007 | [4] -0.126 | [5] -0.02 | [6] 0.092 | [10] -0.072 | [12] -0.048 | [13] -0.047 | [14] 0.008 | [16] 0.042 | [17] -0.059 | [19] -0.045

TMPPE (UniProt Q6ZT21)
inactive: [1] 0 | [2] 0.031 | [3] -0.004 | [4] 0.049 | [5] 0.049 | [6] 0.001 | [7] -0.051 | [8] 0.058 | [10] 0.024 | [11] -0.026 | [12] -0.07 | [13] 0.01 | [14] 0.049 | [16] 0.014 | [17] -0.112 | [18] -0.004 | [19] -0.042 | [20] 0.049

TMEM192 (UniProt Q8IY95)
inactive: [1] 0.094 | [2] 0.003 | [3] 0.006 | [4] 0.029 | [5] 0.004 | [6] -0.018 | [7] -0.003 | [8] 0.011 | [9] 0.009 | [10] 0.062 | [11] -0.007 | [12] -0.044 | [13] -0.047 | [14] -0.063 | [15] -0.004 | [16] -0.034 | [17] -0.036 | [18] -0.016 | [19] -0.024 | [20] 0.036

TMEM33 (UniProt P57088)
inactive: [1] -0.004 | [2] 0.001 | [3] 0.024 | [4] 0 | [5] 0.031 | [6] -0.042 | [7] -0.063 | [8] 0.034 | [9] -0.019 | [10] 0.017 | [11] 0.02 | [12] 0.034 | [13] 0.047 | [14] -0.021 | [15] -0.03 | [16] -0.026 | [17] 0.013 | [18] -0.025 | [19] 0.018 | [20] 0.02

TOPAZ1 (UniProt Q8N9V7)
inactive: [1] 0.022 | [2] -0.129 | [3] 0.279 | [4] -0.147 | [5] -0.116 | [6] 0.723 | [12] -0.353 | [13] 0.037 | [14] -0.193 | [16] 0.021 | [17] 0.013 | [19] -0.106

TNIK isoform 4 (UniProt Q9UKE5)
inactive: [1] 0.002 | [2] -0.015 | [3] -0.034 | [4] 0.025 | [5] 0 | [6] 0.011 | [7] 0.071 | [8] 0.099 | [9] 0.071 | [10] 0.056 | [11] -0.015 | [12] -0.071 | [13] 0.085 | [14] 0.148 | [15] -0.04 | [16] -0.026 | [17] -0.097 | [18] -0.026 | [19] 0.247 | [20] -0.005

TPT1 (UniProt P13693)
inactive: [1] 0.017 | [2] -0.012 | [3] 0.006 | [4] 0.048 | [5] -0.001 | [6] -0.03 | [7] 0.094 | [8] -0.008 | [9] -0.023 | [10] 0.029 | [11] 0.024 | [12] 0.015 | [13] -0.02 | [14] 0.007 | [15] 0.026 | [16] -0.007 | [17] -0.055 | [18] -0.023 | [19] -0.001 | [20] -0.039
